Test results taken from US7674784B2, “Drug and food or drink for improving hyperglycemia” (Morinaga Milk Industry Co., Ltd., priority 2004, dated 2010).
Some entries share one result that the patent states for a list of compounds.

System: type-II diabetes model mice (db/db mice)
Assay: Test Example 2: hemoglobin Alc lowering action compared with a clinical antidiabetic drug, 22 days
Type: in vivo
Conditions: 23rd day from the start of the administration
Procedure: This test was performed in order to compare the hemoglobin Alc lowering action of the compounds of the present invention with that of an antidiabetic drug used in the clinical practice.
The same test sample 1 (9,19-cyclolanostan-3-ol) and test sample 2 (24-methylene-9,19-cyclolanostan-3-ol) used in Test Example 1 were used.
As type-II diabetes model mice, 6-week old male db/db mice (purchased from Clea Japan, Inc.) were used. These mice were divided into groups, each consisting of 7 animals. Each test sample was dissolved in DMSO, and the concentration was adjusted to 1 μg/mL with physiological saline. The final DMSO concentration was adjusted to 0.2%. […] Further, as a control sample 1, ACTOS® tablets (Takeda Pharmaceutical Co., Ltd.) were ground in a mortar and dissolved in physiological saline so that the concentration of pioglitazone hydrochloride as the active ingredient should become 7.5 μg/mL. The type-II diabetes model mice were orally administered with 1 mL of each test sample solution, control sample 1 solution or negative sample solution once a day everyday with a sonde for 22 consecutive days. On the 23rd day from the start of the administration, hemoglobin Alc levels were measured by using DCA 2000 (Bayer-Sankyo Co., Ltd.).

Compound | decreases in hemoglobin Alc levels in comparison with negative sample
C=C(CCC(C)C1CCC2(C)C3CCC4C(C)(C)C(O)CCC45CC35CCC12C)C(C)C (centres unmarked) [Test sample 2, 24-methylene-9,19-cyclolanostan-3-ol] | 15 to 18%
CC(C)CCCC(C)C1CCC2(C)C3CCC4C(C)(C)C(O)CCC45CC35CCC12C (centres unmarked) [Test sample 1, 9,19-cyclolanostan-3-ol] | 15 to 18%
